In publication PMC12520364 one finds binding data, which are given here for one molecule.

The experiment concerns the target HA-tagged SARS-CoV-2 M protein (SARS-CoV-2) (UniProt P0DTC5). Description: pull-down; only the binder purified.

These are yes or no findings as the source states them, for the method shown. In cells and extracts the contact can be indirect. Tags and fused reporters may be left off the sequences shown.

B1: Purified recombinant UBXN7-his protein (protein, UniProt O94888 1-489)
chain: MAAHGGSAASSALKGLIQQFTTITGASESVGKHMLEACNNNLEMAVTMFLDGGGIAEEPSTSSASVSTVRPHTEEEVRAPIPQKQEILVEPEPLFGAPKRRRPARSIFDGFRDFQTETIRQEQELRNGGAIDKKLTTLADLFRPPIDLMHKGSFETAKECGQMQNKWLMINIQNVQDFACQCLNRDVWSNEAVKNIIREHFIFWQVYHDSEEGQRYIQFYKLGDFPYVSILDPRTGQKLVEWHQLDVSSFLDQVTGFLGEHGQLDGLSSSPPKKCARSESLIDASEDSQLEAAIRASLQETHFDSTQTKQDSRSDEESESELFSGSEEFISVCGSDEEEEVENLAKSRKSPHKDLGHRKEENRRPLTEPPVRTDPGTATNHQGLPAVDSEILEMPPEKADGVVEGIDVNGPKAQLMLRYPDGKREQITLPEQAKLLALVKHVQSKGYPNERFELLTNFPRRKLSHLDYDITLQEAGLCPQETVFVQERN
As for B1, the binding result was “no binding”.
